Source: patent US11771086B2, “Pest control composition including novel iminopyridine derivative” (priority 2012, dated 2023)
For some of these results: At least one read-out could not be matched to a standard name with certainty. Some of these results come from one statement about several compounds together.

Assays:
Sogatella furcifera = assay: Reference Test Example 15 Pest control test of Sogatella furcifera (soil drench, single agent); type: in vivo; settings: throughput of 0.05 mg/seedling, three days after the release
Musca domestica = assay: Reference Test Example 13 Pest control test of Musca domestica (topical application); type: in vivo; settings: throughput of 2 μg/head; female adults; twenty four hours after the treatment
Laodelphax striatella [1] = settings: single agent 0.005 mg/Seedling; soil irrigation
Procedure: After the rice seedling was left to stand for 3 days, second instar larvae were released thereto. Thereafter, the larvae were left to stand in a thermostatic chamber (16 hours of light period-8 hours of dark period) at 25° C. […] The test was performed in duplicate. Mortality of larvae (%)={number of dead larvae/(number of survived larvae+number of dead larvae)}×100
B: 100−(mortality of larvae or adults when treated only with each of imidacloprid, fipronil, chlorantraniliprole, spinosad, clothianidin, dinotefuran, sulfoxaflor, pymetrozine, thiamethoxam, flupyradifurone and cycloxaprid))
Method for Judging Synergistic Effects
When the mortality against Laodelphax striatella in the case of a mixture with another agent exceeded the theoretical value by the Colby's equation, a synergistic effect was judged to be present.

Nilaparvata lugens = assay: Reference Test Example 16 Pest control test of Nilaparvata lugens (soil drench, single agent); type: in vivo; settings: throughput of 0.05 mg/seedling, three days after the release
Laodelphax striatella [2] = assay: Reference Test Example 14 Pest control test of Laodelphax striatella (soil drench, single agent); type: in vivo; settings: throughput of 0.05 mg/seedling, three days after the release
Laodelphax striatella [3] = assay: Reference Test Example 18 Pest control test of Laodelphax striatella (wheat seedling root treatment); type: in vivo; settings: wheat seedling roots, throughput of 20 μg/seedling; four days after the release
Procedure: The drug was absorbed from the roots for 72 hours, and then ten second instar larvae of Laodelphax striatella were each released thereto. […] The test was performed in duplicate.

Row | SMILES | mortality (Sogatella furcifera) [%] | mortality (Musca domestica) [%] | Mortality of single agent against Laodelphax striatella (Laodelphax striatella [1]) [%] | death rate (Nilaparvata lugens) [%] | mortality (Laodelphax striatella [2]) [%] | mortality (Laodelphax striatella [3]) [%]
1 | FC(F)(F)C(=S)/N=c1\ccccn1Cc1ccc(Cl)nc1 [Compound 1-20, N-[1-((6-chloropyridin-3-yl)methyl)pyridin-2(1H)-ylidene]-2,2,2-trifluoroethanethioamide] | ≥ 80 | ≥ 80 | 8 | ≥ 80 | ≥ 80 | –
2 | O=C(N=c1ccccn1Cc1ccc(Cl)nc1)C(F)(F)F [Compound P212, N-[1-((6-chloropyridin-3-yl)methyl)pyridin-2(1H)-ylidene]-2,2,2-trifluoroacetamide] | ≥ 80 | ≥ 80 | – | ≥ 80 | ≥ 80 | ≥ 80
